{"source": "patent US20070003565A1", "about": "(priority 2003, published 2007)", "note": "At least one peptide structure holds a part that was inferred or is arguable (an end, a ring closure or a residue). Some compounds share one wording; it may come from a single statement. Residues, ends and D or L forms follow the SMILES beside them."}
{"test_system": "No.04 coronavirus"}
{"smiles": "N=C(N)NCCC[C@H](NC(=O)[C@H](Cc1c[nH]cn1)NC(=O)[C@H](Cc1c[nH]c2ccccc12)NC(=O)[C@H](Cc1c[nH]cn1)NC(=O)[C@H](CCCCN)NC(=O)[C@H](Cc1c[nH]cn1)NC(=O)[C@H](Cc1c[nH]cn1)NC(=O)[C@H](Cc1ccccc1)NC(=O)[C@@H]1CCCN1C(=O)[C@@H](N)Cc1ccc(O)cc1)C(=O)N1CCC[C@H]1C(=O)N[C@@H](CC(N)=O)C(=O)O", "note": "[HAb18G-AP-6, Tyr Pro Phe His His Lys His Typ His Arg Pro Asn] (H-YPFHHKHWHRPN-OH)", "inhibition of coronavirus in 293 cell cultures (in words)": "capable of inhibiting coronavirus"}
{"smiles": "CC[C@H](C)[C@H](NC(=O)[C@@H](NC(=O)[C@@H]1CCCN1C(=O)[C@H](CC(=O)O)NC(=O)[C@H](Cc1c[nH]cn1)NC(=O)[C@@H](NC(=O)[C@@H](N)CCSC)[C@@H](C)O)C(C)C)C(=O)N[C@@H](CO)C(=O)N[C@@H](CC(C)C)C(=O)N1CCC[C@H]1C(=O)N[C@H](C(=O)N[C@H](C(=O)O)[C@@H](C)O)[C@@H](C)O", "note": "[HAb18G-AP-1] (H-MTHDPVISLPTT-OH)", "inhibition of coronavirus in 293 cell cultures (in words)": "capable of inhibiting coronavirus"}
{"smiles": "CC(C)C[C@H](NC(=O)[C@H](CCCCN)NC(=O)[C@@H](N)Cc1ccc(O)cc1)C(=O)N1CCC[C@H]1C(=O)NCC(=O)N[C@@H](Cc1c[nH]cn1)C(=O)N[C@@H](Cc1c[nH]cn1)C(=O)N[C@@H](Cc1c[nH]cn1)C(=O)N[C@@H](Cc1c[nH]cn1)C(=O)N[C@@H](Cc1ccc(O)cc1)C(=O)N[C@@H](CCCNC(=N)N)C(=O)N1CCC[C@H]1C(=O)O", "note": "[HAb18G-AP-9] (H-YKLPGHHHHYRP-OH)", "inhibition of coronavirus in 293 cell cultures (in words)": "capable of inhibiting coronavirus"}
